Test results from patent publication US20120136050A1, “USE OF A MELATONIN AGONIST FOR THE TREATMENT OF SLEEP DISORDERS INCLUDING PRIMARY INSOMNIA” (VANDA PHARMACEUTICALS INC., priority 2009, published 2012).
At least one read-out could not be matched to a standard name with certainty.

Assay: Plasma exposure after oral administration (Cmax, AUC)
Format: in vivo, human

Compound: CCC(=O)NC[C@@H]1C[C@H]1c1cccc2c1CCO2 [Compound A, N-[[(1R,2R)-2-(2,3-dihydro-1-benzofuran-4-yl)cycloproply]methyl]propanamide]
- time at which peak plasma concentration (Cmax) is reached: 0.5 to 1 h
